Laboratory results from PMC3440356.
These are yes or no findings as the source states them, for the method shown. For some assays here: In cells and extracts the contact can be indirect. Tags and fused reporters may be left off the sequences shown.

Columns and labels:
[1] = target: T1, GST-fused Dbl PH domain (human) (UniProt P10911); experiment: pull-down; COS-1 cells co-transfected with PI3KC2β and GST-tagged Dbl domains; lysates (Triton 1%) incubated with glutathione-sepharose beads 2 h at 4°C; immunoblot
T1 sequence: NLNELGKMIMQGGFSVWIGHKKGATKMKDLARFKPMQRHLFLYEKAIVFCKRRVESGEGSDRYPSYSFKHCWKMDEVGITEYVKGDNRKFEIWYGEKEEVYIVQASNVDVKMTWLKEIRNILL

[2] = target: T1, GST-fused Dbl PH domain (human); experiment: pull-down; in vitro binding assay: GST-tagged proteins immobilised on glutathione-sepharose beads, incubated with soluble thrombin-cleaved NT-C2β and Grb2, 2 h at 4°C, 1% Brij 96 buffer (also Triton 1%); immunoblot; both purified

Substance	binding [1]	binding [2]
endogenous Grb2 (COS-1)	no binding	–
soluble N-terminal region of PI3KC2β (domain or fragment)	–	no binding
